Laboratory results: PubChem BioAssay AID493246 (Drosophila RNAi Screening Center, 2011)

- Test: 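Genome-wide search for dsRNAs that reduce cell number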 (primary screen)
- System: Drosophila Kc and S2R+ cells
- Knock-down reagent: long dsRNA against Drosophila genes
- Detection: 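Cell number per well after knock-down, printed as raw plate values; calls were based on per-plate z-scores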
- Scale: Kc cell number and S2R+ cell number: higher = more cells remaining
- Call rule: 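Counted as a hit if cell number falls by a z-score of at least 3 within its plate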
The screen tested about 21,000 reagents; this is a random part of those with a known target gene and a result. Of all reagents, 429 (2%) are marked active. 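Values are raw and not normalised between plates; calls rest on per-plate z-scores that were not deposited.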 A plus sign joins genes that one reagent is predicted to hit. Not given: the amount of reagent, the time to read-out.

The first 2 entries as a preview:
| Kc cell number, rep 1 | Kc cell number, rep 2 | S2R+ cell number, rep 1 | S2R+ cell number, rep 2 | activity call | target gene | amplicon |
| --- | --- | --- | --- | --- | --- | --- |
| 1.57e6 | 1.70e6 | 1.33e6 | 1.55e6 | inactive | Osi16 | DRSC12135 |
| 1.44e6 | 1.50e6 | 1.33e6 | 1.36e6 | inactive | CG9795 | DRSC12336 |

Main list, from the start:
| Kc cell number, rep 1 | Kc cell number, rep 2 | S2R+ cell number, rep 1 | S2R+ cell number, rep 2 | activity call | target gene | amplicon |
| --- | --- | --- | --- | --- | --- | --- |
| 1.57e6 | 1.70e6 | 1.33e6 | 1.55e6 | inactive | Osi16 | DRSC12135 |
| 1.44e6 | 1.50e6 | 1.33e6 | 1.36e6 | inactive | CG9795 | DRSC12336 |
| 1.77e6 | 1.69e6 | 1.19e6 | 1.45e6 | inactive | CG14931 | DRSC02413 |
| 8.41e5 | 9.59e5 | 5.71e5 | 6.54e5 | active | Pabp2 | DRSC07501 |
| 1.64e6 | 1.74e6 | 1.05e6 | 1.20e6 | inactive | TkR99D | DRSC16881 |
| 1.81e6 | 1.90e6 | 1.26e6 | 1.32e6 | inactive | CG30269 | DRSC04158 |
| 1.53e6 | 1.46e6 | 1.05e6 | 1.12e6 | inactive | cyr | DRSC18017 |
| 1.53e6 | 1.46e6 | 1.03e6 | 1.12e6 | inactive | cyr | DRSC18018 |
| 1.54e6 | 1.52e6 | 9.93e5 | 1.08e6 | inactive | cyr | DRSC18021 |
| 1.17e6 | 1.18e6 | 1.16e6 | 1.18e6 | inactive | CG4459 | DRSC15582 |
| 1.22e6 | 1.34e6 | 1.08e6 | 1.24e6 | inactive | CG2113 | DRSC08554 |
| 1.42e6 | 1.51e6 | 1.09e6 | 1.12e6 | inactive | Fmo-1 | DRSC04328 |
| 1.34e6 | 1.41e6 | 1.15e6 | 1.27e6 | inactive | CG12935 | DRSC06248 |
| 1.32e6 | 1.39e6 | 1.12e6 | 1.31e6 | inactive | Bap111 | DRSC18419 |
| 1.64e6 | 1.59e6 | 1.03e6 | 1.18e6 | inactive | CG15023 | DRSC08477 |
| 1.45e6 | 1.61e6 | 1.16e6 | 1.33e6 | inactive | CG42656 | DRSC12472 |
| 1.38e6 | 1.43e6 | 1.21e6 | 1.16e6 | inactive | Unr | DRSC10761 |
| 1.82e6 | 1.95e6 | 1.37e6 | 1.48e6 | inactive | CG31345 | DRSC14193 |
| 1.87e6 | 1.92e6 | 1.36e6 | 1.46e6 | inactive | CG31345 | DRSC14847 |
| 1.48e6 | 1.50e6 | 1.20e6 | 1.32e6 | inactive | LSm7 | DRSC02251 |
| 1.58e6 | 1.58e6 | 1.31e6 | 1.37e6 | inactive | Cpr47Eb | DRSC06345 |
| 1.42e6 | 1.45e6 | 9.88e5 | 1.05e6 | inactive | Polr1H | DRSC14594 |
| 1.72e6 | 1.75e6 | 1.32e6 | 1.62e6 | inactive | Ugt301D1 | DRSC02021 |
| 1.44e6 | 1.62e6 | 1.07e6 | 1.14e6 | inactive | CG13658 | DRSC14659 |
| 1.56e6 | 1.55e6 | 1.14e6 | 1.18e6 | inactive | AANATL6 | DRSC06773 |
| 1.53e6 | 1.62e6 | 1.25e6 | 1.39e6 | inactive | boca | DRSC06408 |
| 1.55e6 | 1.58e6 | 1.12e6 | 1.24e6 | inactive | CG18507 | DRSC01334 |
| 1.85e6 | 1.84e6 | 1.44e6 | 1.57e6 | inactive | CG18507 | DRSC01914 |
| 1.51e6 | 1.66e6 | 1.38e6 | 1.39e6 | inactive | CG14185 | DRSC10184 |
| 1.56e6 | 1.55e6 | 9.72e5 | 1.25e6 | inactive | scw | DRSC01711 |
| 1.82e6 | 1.82e6 | 1.20e6 | 1.34e6 | inactive | scw | DRSC21252 |
| 1.35e6 | 1.35e6 | 9.69e5 | 9.96e5 | inactive | mei-S332 | DRSC04704 |
| 1.46e6 | 1.45e6 | 9.74e5 | 1.04e6 | inactive | CG31106 | DRSC14655 |
| 1.68e6 | 1.86e6 | 9.81e5 | 1.18e6 | inactive | CG17198 + CG17197 | DRSC15190 |
| 1.68e6 | 1.59e6 | 1.01e6 | 1.05e6 | inactive | CG17198 + CG17197 | DRSC15191 |
| 1.38e6 | 1.46e6 | 1.18e6 | 1.26e6 | inactive | CG8569 | DRSC07214 |
| 1.61e6 | 1.70e6 | 1.36e6 | 4.12e5 | inactive | CG9257 | DRSC03173 |
| 6.90e5 | – | 9.79e5 | – | inactive | CG17841 | DRSC17737 |
| 1.60e6 | 1.55e6 | 1.09e6 | 1.19e6 | inactive | moody | DRSC18515 |
| 1.58e6 | 1.68e6 | 1.40e6 | 4.08e5 | inactive | CG9308 | DRSC04539 |
| 1.25e6 | 1.28e6 | 4.75e5 | 8.28e5 | inactive | Coq6 | DRSC03040 |
| 1.40e6 | 1.49e6 | 1.23e6 | 1.26e6 | inactive | osk | DRSC17023 |
| 1.54e6 | 1.65e6 | 1.20e6 | 1.31e6 | inactive | CG17211 | DRSC02587 |
| 1.58e6 | 1.18e6 | 9.84e5 | 1.22e6 | inactive | CG16799 | DRSC06626 |
| 1.21e6 | 1.24e6 | 1.21e6 | 1.34e6 | inactive | Fbxl7 | DRSC15553 |
| 5.62e5 | – | 8.90e5 | – | inactive | Nep1 | DRSC18388 |
| 1.31e6 | 1.45e6 | 7.57e5 | 8.94e5 | inactive | Nep1 | DRSC18389 |
| 1.60e6 | 1.69e6 | 1.33e6 | 1.51e6 | inactive | pkaap | DRSC01925 |
| 1.55e6 | 1.46e6 | 1.01e6 | 1.16e6 | inactive | Recs1 | DRSC16545 |
| 1.37e6 | 1.57e6 | 1.08e6 | 1.20e6 | inactive | CG5516 | DRSC15826 |
| 1.60e6 | 1.85e6 | 1.26e6 | 1.43e6 | inactive | Best3 | DRSC09880 |
| 1.39e6 | 1.46e6 | 1.05e6 | 1.13e6 | inactive | CG8726 | DRSC07250 |
| 1.19e6 | 1.27e6 | 1.01e6 | 8.94e5 | inactive | Pxn | DRSC08685 |
| 6.21e5 | – | 9.20e5 | – | inactive | Hsp60A | DRSC20254 |
| 1.74e6 | 1.81e6 | 1.25e6 | 1.34e6 | inactive | egl | DRSC04682 |
| 1.45e6 | 1.50e6 | 1.10e6 | 1.20e6 | inactive | CG16781 | DRSC18117 |
| 1.42e6 | 1.60e6 | 9.85e5 | 1.12e6 | inactive | emp | DRSC04019 |
| 1.38e6 | 1.46e6 | 1.06e6 | 1.12e6 | inactive | emp | DRSC04683 |
| 1.62e6 | 1.67e6 | 1.34e6 | 1.45e6 | inactive | ppk12 | DRSC04086 |
| 1.40e6 | 1.42e6 | 1.16e6 | 1.16e6 | inactive | OstDelta | DRSC06980 |
| 1.40e6 | 1.43e6 | 1.13e6 | 1.24e6 | inactive | CG8531 | DRSC07209 |
| 1.52e6 | 1.57e6 | 1.36e6 | 1.30e6 | inactive | pst | DRSC11003 |
| 1.51e6 | 1.55e6 | 9.49e5 | 1.24e6 | inactive | Yif1 | DRSC15817 |
| 1.42e6 | 1.78e6 | 1.23e6 | 1.20e6 | inactive | CG40948 (retired record) | DRSC20944 |
| 1.39e6 | 1.27e6 | 1.06e6 | 1.34e6 | inactive | ppk27 | DRSC08168 |
| 1.47e6 | 1.49e6 | 1.18e6 | 1.27e6 | inactive | CG13131 | DRSC02227 |
| 1.41e6 | 1.49e6 | 1.33e6 | 1.41e6 | inactive | CG14609 | DRSC12553 |
| 6.05e5 | – | 8.37e5 | – | inactive | Arfrp1 | DRSC18417 |
| 1.40e6 | 1.51e6 | 1.02e6 | 1.14e6 | inactive | vimar | DRSC05026 |
| 1.59e6 | 1.68e6 | 1.12e6 | 1.21e6 | inactive | Mhc | DRSC03367 |
| 1.30e6 | 1.29e6 | 1.07e6 | 1.17e6 | inactive | Cby | DRSC14591 |
| 1.56e6 | 1.45e6 | 1.07e6 | 1.27e6 | inactive | Teh4 | DRSC08457 |
| 1.64e6 | 1.73e6 | 1.20e6 | 1.28e6 | inactive | Rh3 | DRSC16822 |
| 1.24e6 | 1.11e6 | 5.92e5 | 7.58e5 | active | ind | DRSC11355 |
| 1.60e6 | 1.61e6 | 1.21e6 | 1.29e6 | inactive | CalpC | DRSC19873 |
